According to publication doi:10.1101/2023.03.28.534447:
No constants are given. Whether binding was seen depends on the method and setting. In cells and extracts the contact can be indirect. Some binding calls cover weakened binding; strength is not graded here.

Molecular target: T1, SPRING (C12ORF49) (human) (UniProt Q9H741)
T1 sequence: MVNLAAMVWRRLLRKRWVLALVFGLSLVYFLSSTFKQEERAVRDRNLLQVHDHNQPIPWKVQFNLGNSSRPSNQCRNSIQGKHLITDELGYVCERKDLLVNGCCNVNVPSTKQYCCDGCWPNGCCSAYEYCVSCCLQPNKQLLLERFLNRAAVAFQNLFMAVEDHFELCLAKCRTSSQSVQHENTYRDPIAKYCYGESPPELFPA
Experiment: co-IP

B1: S1P mature C-form lacking the pro-domain (enzyme, UniProt Q14703 187-1052)
chain: RAIPRQVAQTLQADVLWQMGYTGANVRVAVFDTGLSEKHPHFKNVKERTNWTNERTLDDGLGHGTFVAGVIASMRECQGFAPDAELHIFRVFTNNQVSYTSWFLDAFNYAILKKIDVLNLSIGGPDFMDHPFVDKVWELTANNVIMVSAIGNDGPLYGTLNNPADQMDVIGVGGIDFEDNIARFSSRGMTTWELPGGYGRMKPDIVTYGAGVRGSGVKGGCRALSGTSVASPVVAGAVTLLVSTVQKRELVNPASMKQALIASARRLPGVNMFEQGHGKLDLLRAYQILNSYKPQASLSPSYIDLTECPYMWPYCSQPIYYGGMPTVVNVTILNGMGVTGRIVDKPDWQPYLPQNGDNIEVAFSYSSVLWPWSGYLAISISVTKKAASWEGIAQGHVMITVASPAETESKNGAEQTSTVKLPIKVKIIPTPPRSKRVLWDQYHNLRYPPGYFPRDNLRMKNDPLDWNGDHIHTNFRDMYQHLRSMGYFVEVLGAPFTCFDASQYGTLLMVDSEEEYFPEEIAKLRRDVDNGLSLVIFSDWYNTSVMRKVKFYDENTRQWWMPDTGGANIPALNELLSVWNMGFSDGLYEGEFTLANHDMYYASGCSIAKFPEDGVVITQTFKDQGLEVLKQETAVVENVPILGLYQIPAEGGGRIVLYGDSNCLDDSHRQKDCFWLLDALLQYTSYGVTPPSLSHSGNRQRPPSGAGSVTPERMEGNHLHRYSKVLEAHLGDPKPRPLPACPRLSWAKPQPLNETAPSNLWKHQKLLSIDLDKVVLPNFRSNRPQVRPLSPGESGAWDIPGGIMPGRYNQEVGQTIPVFAFLGAMVVLAFFVVQINKAKSRPKRRKPRVKRPQLMQQVHPPKTPSV
For B1, the binding was “binds”.
